The supplement of paper PMC10849652
Some of the results follow.

By UniProt entry, the sequences of proteins in these tests, tags left out. Where a name states a change or a piece, a line headed by the entry shows the natural chain unless it says otherwise.
UniProt Q9BRT6: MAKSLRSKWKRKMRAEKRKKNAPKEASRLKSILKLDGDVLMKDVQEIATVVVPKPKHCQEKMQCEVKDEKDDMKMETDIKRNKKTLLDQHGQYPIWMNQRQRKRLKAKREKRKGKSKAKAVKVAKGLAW
UniProt P48059, whole entry, looked up: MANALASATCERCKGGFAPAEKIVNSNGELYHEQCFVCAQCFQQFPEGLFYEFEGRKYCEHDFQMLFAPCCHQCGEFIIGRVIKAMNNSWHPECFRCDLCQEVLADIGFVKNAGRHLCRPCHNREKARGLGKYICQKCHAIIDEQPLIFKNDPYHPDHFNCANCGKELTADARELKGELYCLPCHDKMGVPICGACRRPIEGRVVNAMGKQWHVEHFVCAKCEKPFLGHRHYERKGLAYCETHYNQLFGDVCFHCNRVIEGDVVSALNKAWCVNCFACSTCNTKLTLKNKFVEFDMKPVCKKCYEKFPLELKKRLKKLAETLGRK
UniProt Q96EM0: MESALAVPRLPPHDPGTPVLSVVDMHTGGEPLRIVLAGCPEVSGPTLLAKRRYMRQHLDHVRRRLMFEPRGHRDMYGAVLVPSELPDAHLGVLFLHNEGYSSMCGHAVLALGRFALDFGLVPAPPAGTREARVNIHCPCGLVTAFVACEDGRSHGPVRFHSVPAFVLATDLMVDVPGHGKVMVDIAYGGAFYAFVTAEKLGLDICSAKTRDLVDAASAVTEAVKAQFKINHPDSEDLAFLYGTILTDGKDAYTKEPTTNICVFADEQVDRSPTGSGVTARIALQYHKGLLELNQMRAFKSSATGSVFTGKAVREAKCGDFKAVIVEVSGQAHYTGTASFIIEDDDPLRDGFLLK
UniProt P13796: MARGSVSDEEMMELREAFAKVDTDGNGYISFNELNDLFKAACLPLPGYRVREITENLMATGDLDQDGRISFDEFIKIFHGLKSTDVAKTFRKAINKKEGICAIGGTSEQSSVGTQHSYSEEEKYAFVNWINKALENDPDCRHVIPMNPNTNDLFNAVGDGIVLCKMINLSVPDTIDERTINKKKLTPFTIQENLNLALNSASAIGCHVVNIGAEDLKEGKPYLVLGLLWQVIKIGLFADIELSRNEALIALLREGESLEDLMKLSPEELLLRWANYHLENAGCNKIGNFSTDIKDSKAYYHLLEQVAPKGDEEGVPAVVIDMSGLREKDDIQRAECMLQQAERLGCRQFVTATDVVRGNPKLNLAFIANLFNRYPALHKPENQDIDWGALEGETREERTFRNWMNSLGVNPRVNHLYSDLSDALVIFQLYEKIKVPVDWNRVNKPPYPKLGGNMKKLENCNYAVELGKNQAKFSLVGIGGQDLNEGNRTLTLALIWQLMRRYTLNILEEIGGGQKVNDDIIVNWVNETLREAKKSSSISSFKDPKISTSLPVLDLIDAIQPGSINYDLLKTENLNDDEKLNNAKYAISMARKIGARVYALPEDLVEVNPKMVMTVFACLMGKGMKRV
UniProt P36776: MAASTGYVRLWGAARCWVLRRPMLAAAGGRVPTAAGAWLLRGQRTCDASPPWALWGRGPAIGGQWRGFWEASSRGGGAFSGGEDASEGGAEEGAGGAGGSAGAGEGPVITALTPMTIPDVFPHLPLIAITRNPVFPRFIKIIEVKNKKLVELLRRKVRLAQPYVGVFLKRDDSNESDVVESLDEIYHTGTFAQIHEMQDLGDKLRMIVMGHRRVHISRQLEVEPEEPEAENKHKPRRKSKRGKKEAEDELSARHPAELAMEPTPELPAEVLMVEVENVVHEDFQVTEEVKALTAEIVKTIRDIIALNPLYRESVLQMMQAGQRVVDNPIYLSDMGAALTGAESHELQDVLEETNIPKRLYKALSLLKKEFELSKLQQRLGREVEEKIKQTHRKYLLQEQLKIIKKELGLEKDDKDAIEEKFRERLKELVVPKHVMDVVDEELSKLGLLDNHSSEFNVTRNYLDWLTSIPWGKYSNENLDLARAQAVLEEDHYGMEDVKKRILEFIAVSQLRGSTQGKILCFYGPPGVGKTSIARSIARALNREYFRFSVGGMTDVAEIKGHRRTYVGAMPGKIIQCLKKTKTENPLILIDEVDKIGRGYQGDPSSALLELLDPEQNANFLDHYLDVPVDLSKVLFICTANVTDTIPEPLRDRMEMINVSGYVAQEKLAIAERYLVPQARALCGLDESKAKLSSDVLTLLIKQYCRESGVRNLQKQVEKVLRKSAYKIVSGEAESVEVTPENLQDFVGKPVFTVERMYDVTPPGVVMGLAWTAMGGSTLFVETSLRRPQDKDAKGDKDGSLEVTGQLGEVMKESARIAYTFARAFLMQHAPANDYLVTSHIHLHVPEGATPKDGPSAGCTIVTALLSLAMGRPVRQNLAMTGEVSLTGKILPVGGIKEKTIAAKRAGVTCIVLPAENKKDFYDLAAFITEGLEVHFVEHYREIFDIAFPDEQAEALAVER
UniProt Q7Z4F1: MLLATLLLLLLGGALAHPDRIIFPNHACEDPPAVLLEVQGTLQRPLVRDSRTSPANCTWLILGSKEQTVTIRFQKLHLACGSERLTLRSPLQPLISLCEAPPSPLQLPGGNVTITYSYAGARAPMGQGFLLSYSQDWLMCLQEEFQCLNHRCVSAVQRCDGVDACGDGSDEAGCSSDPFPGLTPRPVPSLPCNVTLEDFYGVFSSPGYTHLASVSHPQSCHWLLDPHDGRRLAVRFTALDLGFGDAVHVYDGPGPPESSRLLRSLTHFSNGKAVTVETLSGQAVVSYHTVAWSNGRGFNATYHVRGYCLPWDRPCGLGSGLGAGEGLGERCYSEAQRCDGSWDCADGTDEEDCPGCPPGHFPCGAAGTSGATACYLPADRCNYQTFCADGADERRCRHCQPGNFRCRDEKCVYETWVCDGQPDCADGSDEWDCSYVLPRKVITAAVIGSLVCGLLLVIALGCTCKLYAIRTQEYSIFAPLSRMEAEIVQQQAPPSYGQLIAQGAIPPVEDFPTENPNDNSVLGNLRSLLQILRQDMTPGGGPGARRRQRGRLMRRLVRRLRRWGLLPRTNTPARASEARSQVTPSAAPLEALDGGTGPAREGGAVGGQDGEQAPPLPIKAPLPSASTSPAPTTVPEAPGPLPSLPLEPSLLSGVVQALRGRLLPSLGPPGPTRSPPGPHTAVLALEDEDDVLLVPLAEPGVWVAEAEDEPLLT
UniProt O43766: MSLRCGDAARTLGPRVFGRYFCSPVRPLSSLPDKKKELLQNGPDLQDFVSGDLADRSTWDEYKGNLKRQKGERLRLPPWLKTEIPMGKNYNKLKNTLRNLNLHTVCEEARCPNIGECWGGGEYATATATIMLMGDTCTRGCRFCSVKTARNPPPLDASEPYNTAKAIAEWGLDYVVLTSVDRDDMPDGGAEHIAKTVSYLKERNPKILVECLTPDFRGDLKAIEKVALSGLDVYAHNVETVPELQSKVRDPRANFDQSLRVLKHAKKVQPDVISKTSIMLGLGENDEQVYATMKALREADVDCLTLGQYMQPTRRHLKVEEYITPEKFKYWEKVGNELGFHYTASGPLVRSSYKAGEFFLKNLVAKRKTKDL
UniProt Q9H6V9: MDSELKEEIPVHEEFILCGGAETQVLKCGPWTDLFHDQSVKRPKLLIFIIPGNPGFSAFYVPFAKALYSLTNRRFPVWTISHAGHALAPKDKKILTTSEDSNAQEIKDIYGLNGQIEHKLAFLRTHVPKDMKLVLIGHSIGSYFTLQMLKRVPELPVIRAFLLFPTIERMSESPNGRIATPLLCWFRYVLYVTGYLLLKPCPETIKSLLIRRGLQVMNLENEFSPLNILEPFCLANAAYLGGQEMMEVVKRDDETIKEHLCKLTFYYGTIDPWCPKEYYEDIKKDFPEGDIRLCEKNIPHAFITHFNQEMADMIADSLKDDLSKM
UniProt Q14847: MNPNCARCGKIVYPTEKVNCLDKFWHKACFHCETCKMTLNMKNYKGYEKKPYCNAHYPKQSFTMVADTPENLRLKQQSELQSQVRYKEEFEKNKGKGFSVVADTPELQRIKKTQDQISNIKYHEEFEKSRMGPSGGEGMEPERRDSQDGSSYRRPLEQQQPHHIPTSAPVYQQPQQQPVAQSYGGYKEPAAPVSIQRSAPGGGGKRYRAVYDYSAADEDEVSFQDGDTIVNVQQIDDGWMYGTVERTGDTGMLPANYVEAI
UniProt Q5SW96: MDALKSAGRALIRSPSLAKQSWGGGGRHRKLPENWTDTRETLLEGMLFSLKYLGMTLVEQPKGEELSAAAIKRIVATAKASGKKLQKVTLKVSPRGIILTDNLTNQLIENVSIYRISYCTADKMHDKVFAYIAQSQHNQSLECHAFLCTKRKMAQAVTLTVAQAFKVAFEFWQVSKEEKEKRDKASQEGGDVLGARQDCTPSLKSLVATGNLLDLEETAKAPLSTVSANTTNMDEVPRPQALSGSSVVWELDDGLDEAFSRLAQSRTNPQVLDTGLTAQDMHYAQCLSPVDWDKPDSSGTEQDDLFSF
UniProt Q12907: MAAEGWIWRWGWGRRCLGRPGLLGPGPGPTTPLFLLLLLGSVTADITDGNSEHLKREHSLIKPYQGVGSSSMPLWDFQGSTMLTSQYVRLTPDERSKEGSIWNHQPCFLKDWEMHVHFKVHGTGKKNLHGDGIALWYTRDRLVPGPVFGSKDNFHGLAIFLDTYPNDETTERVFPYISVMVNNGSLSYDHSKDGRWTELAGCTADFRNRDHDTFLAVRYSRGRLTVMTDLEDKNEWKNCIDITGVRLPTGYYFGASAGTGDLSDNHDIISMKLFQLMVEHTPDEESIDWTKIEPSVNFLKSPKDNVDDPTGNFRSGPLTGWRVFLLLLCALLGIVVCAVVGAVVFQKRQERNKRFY
UniProt P20700: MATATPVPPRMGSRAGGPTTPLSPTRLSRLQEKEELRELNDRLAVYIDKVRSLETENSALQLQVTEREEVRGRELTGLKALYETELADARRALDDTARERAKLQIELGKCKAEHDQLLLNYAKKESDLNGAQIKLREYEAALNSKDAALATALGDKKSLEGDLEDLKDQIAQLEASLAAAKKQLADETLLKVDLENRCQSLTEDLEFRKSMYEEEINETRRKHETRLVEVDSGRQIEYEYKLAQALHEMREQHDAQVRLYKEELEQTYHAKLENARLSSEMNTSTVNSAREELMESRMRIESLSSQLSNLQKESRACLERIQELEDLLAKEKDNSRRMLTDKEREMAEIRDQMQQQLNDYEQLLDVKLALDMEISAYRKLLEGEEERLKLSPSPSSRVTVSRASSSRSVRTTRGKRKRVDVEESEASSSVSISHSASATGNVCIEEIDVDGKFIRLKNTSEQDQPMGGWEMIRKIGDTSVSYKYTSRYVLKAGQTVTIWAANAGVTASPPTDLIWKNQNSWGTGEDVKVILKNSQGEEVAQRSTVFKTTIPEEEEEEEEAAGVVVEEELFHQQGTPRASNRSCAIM
UniProt O14910: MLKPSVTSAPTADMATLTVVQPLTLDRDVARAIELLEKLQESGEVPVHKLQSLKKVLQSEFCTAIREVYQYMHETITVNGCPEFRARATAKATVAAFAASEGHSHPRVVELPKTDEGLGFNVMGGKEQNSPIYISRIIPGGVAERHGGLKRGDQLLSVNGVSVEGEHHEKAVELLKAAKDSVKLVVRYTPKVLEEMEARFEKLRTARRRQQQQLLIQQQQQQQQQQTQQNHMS
UniProt Q6UWP7: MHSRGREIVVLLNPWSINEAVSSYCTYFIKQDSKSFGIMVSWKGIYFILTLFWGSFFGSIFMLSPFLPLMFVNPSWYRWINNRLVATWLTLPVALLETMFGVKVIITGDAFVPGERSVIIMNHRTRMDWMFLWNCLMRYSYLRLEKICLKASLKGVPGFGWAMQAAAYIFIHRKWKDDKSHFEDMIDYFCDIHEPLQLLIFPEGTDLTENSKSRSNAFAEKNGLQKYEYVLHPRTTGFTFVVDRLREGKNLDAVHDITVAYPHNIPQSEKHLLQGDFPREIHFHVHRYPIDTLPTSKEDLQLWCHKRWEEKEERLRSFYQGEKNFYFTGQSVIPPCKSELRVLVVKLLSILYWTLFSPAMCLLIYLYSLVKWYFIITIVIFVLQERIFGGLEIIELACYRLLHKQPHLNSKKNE
UniProt Q92604: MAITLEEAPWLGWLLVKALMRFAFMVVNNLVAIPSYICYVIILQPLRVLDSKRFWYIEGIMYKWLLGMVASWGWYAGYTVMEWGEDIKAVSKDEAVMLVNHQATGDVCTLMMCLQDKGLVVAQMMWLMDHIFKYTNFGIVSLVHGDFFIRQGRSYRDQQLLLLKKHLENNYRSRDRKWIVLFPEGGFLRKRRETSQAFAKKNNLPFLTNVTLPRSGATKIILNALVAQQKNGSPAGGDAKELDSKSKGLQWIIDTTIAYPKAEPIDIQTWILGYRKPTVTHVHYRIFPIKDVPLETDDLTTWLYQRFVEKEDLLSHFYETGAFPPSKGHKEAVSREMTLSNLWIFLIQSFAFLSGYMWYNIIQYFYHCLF
UniProt Q9NUP9: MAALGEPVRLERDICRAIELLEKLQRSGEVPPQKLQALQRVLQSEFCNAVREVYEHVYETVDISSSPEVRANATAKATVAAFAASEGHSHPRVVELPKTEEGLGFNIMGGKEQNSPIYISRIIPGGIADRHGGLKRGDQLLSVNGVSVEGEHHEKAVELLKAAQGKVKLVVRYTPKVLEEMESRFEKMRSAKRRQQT

Columns and labels:
Assay in all cases: log2 fold change, soluble protein after heating vs DMSO (PISA); higher = thermal stabilisation; K562 cells, 10 uM, 30 min; active = over 0.2 and 3.5 SD of the protein, either way, in both replicates (recomputed)
[1] = compound: COC1=CC=C(C=C1)CN2C=CC3=C2C=C(C=C3)C(=O)NO
Procedure, shortened: (§1)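 Values are thermal stability changes relative to control samples and are taken from duplicates. They are stated as log2 fold changes. Before quantification by TMTpro 16plex LC-MS/MS with equalised channel sums, K562 cells at 2×10^6 cells/mL were treated with 10 μM compound for 30 min, heated in aliquots for 3 min across 48°C-58°C, pooled, extracted in PBS with 0.5% NP-40 at 4°C, and centrifuged at 21,000xg for 90 min to give the soluble supernatant.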

[2] = compound: CON(C)C(=O)N1N=C(c2cc(F)ccc2F)S[C@@]1(CCCN)c1ccccc1 [filanesib]
Procedure, shortened: as §1

[3] = compound: CO[C@H]1C[C@@H]2CC[C@@H](C)[C@@](O)(O2)C(=O)C(=O)N2CCCC[C@H]2C(=O)O[C@H]([C@H](C)C[C@@H]2CC[C@H](n3cnnn3)[C@H](OC)C2)CC(=O)[C@H](C)/C=C(\C)[C@@H](O)[C@@H](OC)C(=O)[C@H](C)C[C@H](C)/C=C/C=C/C=C/1C [zotarolimus]
Procedure, shortened: as §1

[4] = compound: COc1cc(C(=O)O)ccc1NC(=O)[C@@H]1N[C@@H](CC(C)(C)C)[C@](C#N)(c2ccc(Cl)cc2F)[C@H]1c1cccc(Cl)c1F [idasanutlin]
Procedure, shortened: as §1

[5] = compound: COc1cc(Nc2ncc3c(n2)-c2ccc(Cl)cc2C(c2c(F)cccc2OC)=NC3)ccc1C(=O)O [alisertib]
Procedure, shortened: as §1

[6] = compound: COc1cc2nc(-c3cc(F)ccc3O)nc(N[C@@H]3CNC[C@H]3C(C)(C)O)c2cc1OC
Procedure, shortened: as §1

[7] = compound: COc1cc2ncnc(Nc3ccc(F)c(Cl)c3)c2cc1OCCCN1CCOCC1 [gefitinib]
Procedure, shortened: as §1

[8] = compound: COc1cccc2cc(-c3nc([C@H]4CC[C@H](C(=O)O)CC4)n4ncnc(N)c34)[nH]c12
Procedure, shortened: as §1

[9] = compound: CS(=O)(=O)CCNCc1ccc(-c2ccc3ncnc(Nc4ccc(OCc5cccc(F)c5)c(Cl)c4)c3c2)o1 [lapatinib]
Procedure, shortened: as §1

[10] = compound: CS(=O)(=O)N1CCN(Cc2cc3nc(-c4cccc5[nH]ncc45)nc(N4CCOCC4)c3s2)CC1 [pictilisib]
Procedure, shortened: as §1

| Target | log2 fold change [1] | log2 fold change [2] | log2 fold change [3] | log2 fold change [4] | log2 fold change [5] | log2 fold change [6] | log2 fold change [7] | log2 fold change [8] | log2 fold change [9] | log2 fold change [10] |
| --- | --- | --- | --- | --- | --- | --- | --- | --- | --- | --- |
| LLPH (UniProt Q9BRT6) | inactive: -0.179 | inactive: 0.514 | inactive: 0.044 | inactive: 0.232 | inactive: -0.048 | inactive: -0.126 | inactive: -0.135 | inactive: -0.128 | inactive: 0.021 | inactive: -0.24 |
| LCMT1 (UniProt Q9UIC8) | inactive: -0.134 | inactive: -0.046 | inactive: 0.052 | inactive: -0.126 | inactive: -0.066 | inactive: 0.053 | inactive: 0.015 | inactive: 0.023 | inactive: 0.011 | inactive: 0.009 |
| L1RE1 (UniProt Q9UN81) | inactive: -0.058 | inactive: 0.018 | inactive: -0.026 | inactive: 0.087 | inactive: -0.328 | inactive: 0 | inactive: -0.021 | inactive: 0.122 | inactive: 0.012 | – |
| LMAN1 (UniProt P49257) | inactive: -0.06 | inactive: -0.063 | inactive: -0.013 | inactive: 0.021 | inactive: -0.034 | inactive: -0.036 | inactive: -0.013 | inactive: 0.005 | inactive: -0.021 | inactive: -0.039 |
| LIMS1 (UniProt P48059) | inactive: 0.093 | – | – | – | – | – | – | – | – | – |
| L3HYPDH (UniProt Q96EM0) | inactive: 0.022 | inactive: -0.116 | inactive: 0.037 | inactive: -0.136 | inactive: 0.024 | inactive: -0.04 | inactive: 0.041 | inactive: 0.025 | inactive: 0.062 | inactive: 0.032 |
| LMF2 (UniProt Q9BU23) | inactive: -0.041 | inactive: -0.011 | inactive: -0.027 | inactive: -0.02 | inactive: -0.025 | inactive: -0.014 | inactive: 0.013 | inactive: -0.021 | inactive: 0.062 | inactive: -0.095 |
| LHPP (UniProt Q9H008) | inactive: -0.067 | inactive: 0.036 | inactive: 0.06 | inactive: -0.103 | inactive: 0.016 | inactive: 0.113 | inactive: -0.042 | inactive: 0.064 | inactive: -0.12 | inactive: 0.042 |
| LETM1 (UniProt O95202) | inactive: 0.04 | inactive: -0.148 | inactive: 0.026 | inactive: -0.044 | inactive: -0.031 | inactive: -0.149 | inactive: -0.021 | inactive: 0.004 | inactive: -0.036 | inactive: -0.004 |
| LCP1 (UniProt P13796) | inactive: -0.006 | inactive: -0.017 | inactive: 0.013 | inactive: 0.026 | inactive: -0.047 | inactive: -0.008 | inactive: -0.004 | inactive: 0.037 | inactive: -0.039 | inactive: 0.027 |
| LONP2 (UniProt Q86WA8) | inactive: -0.002 | inactive: -0.019 | inactive: -0.02 | inactive: -0.177 | inactive: -0.115 | inactive: 0.375 | inactive: 0.129 | inactive: 0.015 | inactive: 0.1 | inactive: -0.041 |
| LONP1 (UniProt P36776) | inactive: -0.006 | inactive: -0.02 | inactive: -0.017 | inactive: -0.025 | inactive: -0.049 | inactive: 0.02 | inactive: 0.004 | inactive: 0.015 | inactive: -0.038 | inactive: 0.036 |
| LRPPRC (UniProt P42704) | inactive: 0.303 | inactive: -0.788 | inactive: -0.02 | inactive: 0 | inactive: 0.207 | inactive: -0.638 | inactive: -0.189 | inactive: 0.119 | inactive: -0.091 | inactive: -0.119 |
| LRP10 (UniProt Q7Z4F1) | inactive: 0.141 | inactive: -0.052 | inactive: -0.032 | inactive: 0.009 | inactive: 0.101 | inactive: -0.224 | inactive: -0.053 | inactive: 0.117 | inactive: 0.088 | – |
| LDHB (UniProt P07195) | inactive: -0.051 | inactive: -0.027 | inactive: -0.012 | inactive: -0.036 | inactive: -0.053 | inactive: 0.008 | inactive: 0.003 | inactive: 0.12 | inactive: -0.028 | inactive: -0.033 |
| LIAS (UniProt O43766) | inactive: -0.131 | inactive: -0.049 | inactive: -0.097 | inactive: -0.032 | inactive: -0.041 | inactive: 0.132 | inactive: 0.014 | inactive: 0.036 | inactive: -0.051 | inactive: 0.078 |
| KTI12 (UniProt Q96EK9) | inactive: 0.057 | inactive: -0.042 | inactive: 0.071 | inactive: 0.1 | inactive: 0.056 | inactive: 0.074 | inactive: -0.011 | inactive: 0.034 | inactive: 0.008 | inactive: -0.02 |

Whole records as entered above. Order of values: log2 fold change [1] | log2 fold change [2] | log2 fold change [3] | log2 fold change [4] | log2 fold change [5] | log2 fold change [6] | log2 fold change [7] | log2 fold change [8] | log2 fold change [9] | log2 fold change [10]
LRP10 (UniProt Q7Z4F1) is listed as inactive: 0.141 | inactive: -0.052 | inactive: -0.032 | inactive: 0.009 | inactive: 0.101 | inactive: -0.224 | inactive: -0.053 | inactive: 0.117 | inactive: 0.088 | –
LONP1 (UniProt P36776) is listed as inactive: -0.006 | inactive: -0.02 | inactive: -0.017 | inactive: -0.025 | inactive: -0.049 | inactive: 0.02 | inactive: 0.004 | inactive: 0.015 | inactive: -0.038 | inactive: 0.036
LHPP (UniProt Q9H008) is listed as inactive: -0.067 | inactive: 0.036 | inactive: 0.06 | inactive: -0.103 | inactive: 0.016 | inactive: 0.113 | inactive: -0.042 | inactive: 0.064 | inactive: -0.12 | inactive: 0.042

(listing goes on)

| Target | log2 fold change [1] | log2 fold change [2] | log2 fold change [3] | log2 fold change [4] | log2 fold change [5] | log2 fold change [6] | log2 fold change [7] | log2 fold change [8] | log2 fold change [9] | log2 fold change [10] |
| --- | --- | --- | --- | --- | --- | --- | --- | --- | --- | --- |
| LDAH isoform 2 (UniProt Q9H6V9) | inactive: 0.06 | inactive: -0.137 | inactive: 0.057 | inactive: -0.185 | inactive: -0.041 | active: -0.517 | inactive: 0.004 | inactive: 0.032 | inactive: -0.005 | inactive: 0.075 |
| LASP1 (UniProt Q14847) | inactive: 0.056 | inactive: -0.011 | inactive: -0.02 | inactive: -0.011 | inactive: -0.032 | inactive: -0.023 | inactive: 0.004 | inactive: 0.012 | inactive: -0.014 | inactive: -0.002 |
| LARGE2 (UniProt Q8N3Y3) | inactive: 0.004 | inactive: 0.109 | – | – | – | – | – | – | – | – |
| KYAT3 (UniProt Q6YP21) | inactive: -0.049 | inactive: -0.019 | inactive: -0.017 | inactive: -0.037 | inactive: -0.019 | inactive: 0.024 | inactive: -0.003 | inactive: 0.063 | inactive: 0.014 | inactive: -0.018 |
| LEPR (UniProt P48357) | inactive: -0.041 | inactive: 0.01 | inactive: 0.007 | inactive: 0.03 | inactive: 0.114 | inactive: 0.038 | inactive: -0.041 | inactive: 0.022 | inactive: 0.03 | inactive: 0.022 |
| LDLRAP1 (UniProt Q5SW96) | inactive: 0.023 | – | – | – | – | – | – | – | – | – |
| LARP1 (UniProt Q6PKG0) | inactive: 0 | inactive: 0.048 | inactive: -0.048 | inactive: 0.089 | inactive: 0.137 | inactive: -0.001 | inactive: -0.049 | inactive: -0.161 | inactive: 0.023 | inactive: -0.152 |
| LNPK (UniProt Q9C0E8) | inactive: 0.007 | inactive: -0.005 | inactive: -0.049 | inactive: -0.002 | inactive: -0.034 | inactive: 0.001 | inactive: 0.025 | inactive: 0.079 | inactive: -0.008 | inactive: 0.017 |
| LMAN2 (UniProt Q12907) | inactive: -0.014 | inactive: -0.071 | inactive: -0.002 | inactive: -0.047 | inactive: -0.024 | inactive: 0 | inactive: -0.003 | inactive: 0.025 | inactive: 0.02 | inactive: 0.041 |
| LMNB1 (UniProt P20700) | inactive: -0.034 | inactive: 0.131 | inactive: 0.053 | inactive: 0.14 | inactive: -0.075 | inactive: -0.09 | inactive: -0.002 | inactive: 0.064 | inactive: 0.087 | inactive: 0.005 |
| LIN7A (UniProt O14910) | inactive: -0.123 | inactive: 0.007 | inactive: -0.033 | inactive: 0.029 | inactive: -0.009 | inactive: -0.145 | inactive: 0.053 | inactive: 0.026 | inactive: 0.024 | – |
| LCLAT1 (UniProt Q6UWP7) | inactive: 0.039 | inactive: -0.006 | inactive: -0.02 | inactive: -0.008 | inactive: 0.007 | inactive: 0.144 | inactive: -0.025 | inactive: 0.012 | inactive: 0.005 | inactive: -0.02 |
| LPGAT1 (UniProt Q92604) | inactive: 0.124 | inactive: -0.021 | inactive: 0.001 | inactive: -0.098 | inactive: 0.032 | inactive: -0.082 | inactive: -0.059 | inactive: 0.12 | inactive: 0.15 | – |
| LIN7C (UniProt Q9NUP9) | inactive: -0.143 | inactive: 0.041 | inactive: -0.019 | inactive: 0.009 | inactive: -0.1 | inactive: 0.017 | inactive: 0.073 | inactive: 0.016 | inactive: 0.013 | inactive: 0.012 |
| LIN9 isoform 2 (UniProt Q5TKA1) | inactive: -0.12 | inactive: 0.022 | inactive: -0.038 | inactive: 0.012 | – | – | – | – | – | – |
| LAMP2 (UniProt P13473) | inactive: -0.125 | inactive: -0.058 | inactive: -0.022 | inactive: -0.005 | inactive: -0.006 | inactive: -0.012 | inactive: 0.005 | inactive: 0.084 | inactive: -0.079 | inactive: 0.046 |
